According to publication PMC9712689:
No constants are given. Whether binding was seen depends on the method and setting. Binding seen in cells or lysates may run through a third protein. Here binding means that the protein was enriched with, or labelled near, the bait; the list need not be complete.

Chains of the proteins cited; added tags and fusions are not shown. Lines headed by an entry give the natural chain unless they say otherwise; changes in a name come on top.
UniProt Q9HX24: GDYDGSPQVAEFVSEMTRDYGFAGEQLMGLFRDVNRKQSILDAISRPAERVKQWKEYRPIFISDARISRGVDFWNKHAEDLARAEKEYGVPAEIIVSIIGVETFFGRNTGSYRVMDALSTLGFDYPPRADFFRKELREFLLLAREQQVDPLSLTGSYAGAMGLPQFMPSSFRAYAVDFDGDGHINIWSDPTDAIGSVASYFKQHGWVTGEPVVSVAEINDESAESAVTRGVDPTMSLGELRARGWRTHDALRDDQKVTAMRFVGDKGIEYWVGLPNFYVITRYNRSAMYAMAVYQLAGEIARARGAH
UniProt Q9I4G6: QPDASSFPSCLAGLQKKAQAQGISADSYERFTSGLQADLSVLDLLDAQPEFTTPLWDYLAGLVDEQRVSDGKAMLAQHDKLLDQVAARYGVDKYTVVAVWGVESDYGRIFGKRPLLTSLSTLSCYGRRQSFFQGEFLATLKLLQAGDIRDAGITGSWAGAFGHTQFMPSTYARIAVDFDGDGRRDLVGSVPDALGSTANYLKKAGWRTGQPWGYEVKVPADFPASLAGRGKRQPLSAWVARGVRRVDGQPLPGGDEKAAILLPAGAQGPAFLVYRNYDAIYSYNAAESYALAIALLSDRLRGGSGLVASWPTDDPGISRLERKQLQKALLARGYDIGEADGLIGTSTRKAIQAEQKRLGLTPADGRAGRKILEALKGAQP

Experiments:
[1] = target: SltB1, N-terminal His-tagged construct (P. aeruginosa) (UniProt Q9HX24); assay: affinity purification with mass spectrometry; N-terminally His-tagged LT on Ni-NTA resin incubated with the soluble or the 0.5% NP-40-solubilised membrane proteome of P. aeruginosa PAO1, 4 °C overnight; eluted with 500 mM imidazole; no cross-linker; only the target purified
[2] = target: SltB2, N-terminal His-tagged construct (P. aeruginosa) (UniProt Q9I4G6); assay: as above

B1: PBP7 (protein, UniProt P72161 24-310)
chain: SPPPKAGLPLQQELASGSALVTDQNTGKVLYSRNPDLVVPIASITKLMTAMVVLDSKLPLDEVLPIAISETSEMRGVFSRVRVGSQISRRDMLLLALMSSENRAAASLAQNYPGGKNAFVKAMNAKAHALGMKNTRYVEPTGLSLHNVSTARDLTRLLVASRQYPLLSQWSTTPEKTVAFRHPNYTLGFRNTNHLINNKTWNIQLTKTGFTNEAGHCLVMRTTINRSPVNLVVLDAFGKYTHFADATRLRRWLETGQVTAIPAAAKAYRLQRDRERGLGQPVAQAVR
- binding [1]: binds
- binding [2]: binds

B2: RlpA (rare lipoprotein A) (protein, UniProt Q9X6V6 27-342)
chain: CSSKAPQQPARQAGISGPGDYSRPHRDGAPWWDVDVSRIPDAVPMPHNGSVKANPYTVLGKTYYPMNDARAYRMVGTASWYGTKFHGQATANGETYDLYGMTAAHKTLPLPSYVRVTNLDNGKSVIVRVNDRGPFYSDRVIDLSFAAAKKLGYAETGTARVKVEGIDPVQWWAQRGRPAPMVLAQPKQAVAQAAPAAAQTQAVAMAQPIETYTPPPAQHAAAVLPVQIDSKKNASLPADGLYLQVGAFANPDAAELLKAKLSGVTAAPVFISSVVRNQQILHRVRLGPIGSADEVSRTQDSIRVANLGQPTLVRPD
- binding [1]: binds
- binding [2]: binds
